Reference: patent US20120122727A1, “IN VITRO METHOD FOR PREDICTING WHETHER A COMPOUND IS GENOTOXIC IN VIVO” (priority 2009, published 2012)

Test system: primary mouse hepatocytes
Experiment: Gene expression in primary mouse hepatocytes, GTX vs non-GTX (four-gene classifier, 24 h)
Method: Hepatocyte cells were incubated and exposed to a compound for 24 h before being harvested for RNA isolation.
The results of the gene expression analysis may then be fed into a statistical software package such as R, Splus, or Microsoft Excel. […] If none or only one of these criteria were met, no point was scored.
For each of the four genes mentioned in the table (1700007K13RIK, GAS2L3, SPC25, DDIT4L), a statistical comparison was made between the normalized expression data for these genes. […] If none or only one of these criteria were met, no point was scored.
For each compound, the sum of the scores for four genes is taken. If this score is 0, a compound can be believed not to be genotoxic. If this score is 1, 2, 3 or 4, a compound is genotoxic.
If none or only one of these criteria were met, no point was scored.

[1] = 24 h exposure, average of four replicates
[2] = log 2 ratio, 24 h exposure, concentration per Table 4

- score 1700007K13RIK [1]: 0
- score DDIT4L [1]: 0
- score GAS2L3 [1]: 0
- score SPC25 [1]: 0
Compound: CCCCc1oc2ccccc2c1C(=O)c1cc(I)c(OCCN(CC)CC)c(I)c1 [AMD, Amiodarone]
- Ratios of gene expression treated/untreated 1700007K13RIK [2]: −0.2612
- Ratios of gene expression treated/untreated DDIT4L [2]: −0.309
- Ratios of gene expression treated/untreated GAS2L3 [2]: 0.2758
- Ratios of gene expression treated/untreated SPC25 [2]: −0.4118
- Total score (sum of scores for four genes, 0 = not genotoxic, 1, 2, 3 or 4 = genotoxic): 0
